Measurements reported in PubChem BioAssay AID1259297 (Sanger Institute, 2017)
In all, the deposit lists 794 reagents; this is a part drawn at random. 13 of all reagents (1.6%) were called active. 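Calls reflect knock-down without drug only; drug synergy is judged separately, with scores above 0.15 counted as synergy.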 Viability is capped at 1. Reagent sequences are not shown. Not stated in the record: the amount of reagent, the time to read-out.

Purpose: 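Kinases whose loss kills cells on their own or with targeted drugs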 (primary screen)
System: human RCM1 colorectal cancer cell line
Reagent: siRNA pool against human genes
Treatment: separate arms: DMSO vehicle, or one anchor drug at a mild dose: BYL719 1 µM, cetuximab 5 µg/ml, trametinib 10 nM
Detection: 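Replicate-mean well viability as a share of non-targeting pool control, a robust z-score without drug, and synergy scores for BYL719, cetuximab and trametinib arms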
Direction: viability z-score, knock-down alone: higher = more viable cells than non-targeting controls; viability, knock-down alone (DMSO): higher = more viable cells; synergy score with trametinib: higher = stronger combined killing with trametinib; synergy score with BYL719: higher = stronger combined killing with BYL719; synergy score with cetuximab: higher = stronger combined killing with cetuximab
Call rule: 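Essential when the viability robust z-score for knock-down alone is below -3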
Calls: active = essential when knocked down alone; inactive = no clear loss of viability alone

gene	viability z-score, knock-down alone	viability, knock-down alone (DMSO) (fraction of control)	synergy score with trametinib	synergy score with BYL719	synergy score with cetuximab	call
CAMKV	0.492	0.962	-0.0168	0.0729	-0.107	inactive
NTRK2	0.374	0.951	-0.101	0.00942	-0.126	inactive
TTBK2	0.0435	0.92	0.0864	-0.00695	-0.161	inactive
PRKCI	0.101	0.926	0.125	0.0339	0.0432	inactive
PRKAA2	0.536	0.966	-0.0226	-0.0872	-0.0334	inactive
TP53BP1	0.9	1	0.0742	-0.0383	-0.106	inactive
RELA	0.9	1	0.0577	-0.0728	-0.118	inactive
NME1	0.9	1	-0.214	-0.0728	-0.118	inactive
ITPK1	0.9	1	0.0732	0.0251	-0.0439	inactive
UCK2	-0.0624	0.911	-0.119	-0.126	-0.197	inactive
MAP3K9	-1.5	0.777	0.054	0.064	0.213	inactive
CAMK2D	0.9	1	-0.091	-0.0728	-0.118	inactive
MYLK	-1.42	0.785	0.0337	-0.0383	-0.1	inactive
MAPKAPK3	-1.11	0.814	0.0923	-0.00935	0.0614	inactive
PI4KB	0.284	0.943	0.0673	-0.126	-0.169	inactive
CDK5R2	0.9	1	-0.112	-0.0728	0.0513	inactive
FCSK	-0.449	0.875	-0.0264	-0.0363	-0.106	inactive
PRKCG	-0.357	0.883	0.0194	-0.0549	-0.0148	inactive
RPS6KA2	-0.267	0.892	-0.0471	-0.0176	-0.082	inactive
DLG3	0.308	0.945	0.0155	-0.109	-0.157	inactive
TRPM6	0.446	0.958	-0.126	-0.0463	-0.117	inactive
CAMK2N1	-3.15	0.624	0.0432	-0.0538	0.0615	active
STKLD1	-0.5	0.87	0.0223	-0.0156	-0.00343	inactive
MAPKAPK5	0.311	0.945	-0.115	-0.107	0.0086	inactive
DNMT3A	-1.5	0.778	0.131	-0.0783	-0.0411	inactive
GRK3	0.9	1	-0.0621	-0.0728	-0.118	inactive
AK1	0.9	1	0.121	0.0657	-0.118	inactive
CDKN1C	0.9	1	0.0796	-0.0669	-0.118	inactive
CKS1B	0.9	1	0.0107	-0.0415	-0.112	inactive
SPHK1	0.141	0.93	0.0205	-0.057	0.00246	inactive
DYRK3	-0.465	0.873	0.012	-0.0181	-0.104	inactive
EIF2AK3	0.251	0.94	-0.0676	-0.121	-0.13	inactive
MAPK13	0.177	0.933	0.112	-0.0559	-0.0259	inactive
DCK	-0.174	0.9	0.0154	-0.0454	-0.00992	inactive
DSTYK	-0.0955	0.908	-0.00401	-0.0676	0.0712	inactive
FLT1	0.9	1	-0.0526	-0.0728	-0.118	inactive
CDADC1	0.9	1	0.125	0.0841	0.00643	inactive
ERBB2	-0.0563	0.911	-0.0872	-0.155	-0.188	inactive
ACVRL1	0.9	1	-0.115	-0.0728	-0.118	inactive
LMBR1	0.704	0.982	0.0748	-0.006	-0.078	inactive
DGUOK	0.636	0.976	0.0747	0.125	0.144	inactive
MET	0.9	1	-0.0937	0.0653	0.0036	inactive
PDIK1L	0.441	0.957	-0.0184	-0.0618	-0.153	inactive
TWF1	0.9	1	0.1	-0.0703	-0.105	inactive
PRKCA	0.846	0.995	0.159	-0.0355	-0.123	inactive
PIP5K1A	-0.611	0.86	0.0231	-0.102	-0.0734	inactive
AK3	0.32	0.946	0.0885	-0.123	-0.158	inactive
NUP107	-0.525	0.868	-0.0174	-0.101	0.0184	inactive
GUCY2C	0.9	1	0.0545	-0.00913	-0.118	inactive
PHKG2	0.9	1	-0.0984	-0.0432	-0.0908	inactive

Hits, of those listed so far:
gene	viability z-score, knock-down alone	viability, knock-down alone (DMSO) (fraction of control)	synergy score with trametinib	synergy score with BYL719	synergy score with cetuximab	call
CAMK2N1	-3.15	0.624	0.0432	-0.0538	0.0615	active
